Values from PubChem BioAssay AID504764 (Drosophila RNAi Screening Center, 2011).
Test: 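Genome-wide screen for regulators of Notch-driven gene expression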 (primary screen). System: Drosophila Kc167 cells. Knock-down reagent: long dsRNA against Drosophila genes. Duration: about 5 days (4 days dsRNA, then 24 h after transfection). Treatment: transfection of constitutively active membrane-tethered Notch lacking the extracellular domain, read 24 h later. Measurement: 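Firefly luciferase from an E(spl)m3 reporter with active Notch, plus control-promoter and uninduced reporter wells for normalisation; unnormalised counts, duplicate wells a and b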. Scale: induced reporter light, run 1, well a and induced reporter light, run 1, well b: higher = more light from the Notch target reporter with active Notch; control promoter light, run 1, well a and control promoter light, run 1, well b: higher = more light from the viral control promoter (cell number, transfection, viability); uninduced reporter light, run 1, well a: higher = more light from the Notch target reporter without active Notch. Call rule: 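Wells with low control signal or poorly matching duplicates excluded; duplicates averaged; per source plate, z beyond ±2 for induced/control log2 ratio or beyond ±1.8 for induced/uninduced marks a hit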. Meaning of the calls: active = modifier hit (raised or lowered Notch signal); inactive = not a hit.
The deposit covers about 22,000 reagents; shown is a random part of those with a known target gene and a result. Of all reagents, 403 (1.9%) got an active call. 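Unnormalised raw counts per well; ratio z-scores behind the hit calls and whether each hit raises or lowers signal are not deposited.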 Not stated in the record: the amount of reagent.

For CG9467, the entry reads induced reporter light, run 1, well a = 1.31e5; induced reporter light, run 1, well b = 1.54e5; control promoter light, run 1, well a = 98525; control promoter light, run 1, well b = 87940; uninduced reporter light, run 1, well a = 9850; inactive.
St1 (Sulfotransferase 1) scored induced reporter light, run 1, well a = 94945; induced reporter light, run 1, well b = 92900; control promoter light, run 1, well a = 70520; control promoter light, run 1, well b = 74490; uninduced reporter light, run 1, well a = 6670; inactive.
For Pbp95 (PSEA-binding protein 95kD), the entry reads induced reporter light, run 1, well a = 58970; induced reporter light, run 1, well b = 68955; control promoter light, run 1, well a = 72680; control promoter light, run 1, well b = 55250; uninduced reporter light, run 1, well a = 4105; inactive.
CG4709 gave induced reporter light, run 1, well a = 2.80e5; induced reporter light, run 1, well b = 2.21e5; control promoter light, run 1, well a = 2.18e5; control promoter light, run 1, well b = 1.99e5; uninduced reporter light, run 1, well a = 17175; inactive.
After knock-down of CG1620, the record shows induced reporter light, run 1, well a = 2.19e5; induced reporter light, run 1, well b = 2.24e5; control promoter light, run 1, well a = 1.78e5; control promoter light, run 1, well b = 2.09e5; uninduced reporter light, run 1, well a = 18315; inactive.
CG12194 gave induced reporter light, run 1, well a = 2.37e5; induced reporter light, run 1, well b = 1.64e5; control promoter light, run 1, well a = 2.51e5; control promoter light, run 1, well b = 2.37e5; uninduced reporter light, run 1, well a = 13885; inactive.
With knock-down of Trs33 (TRAPP subunit 33), the record shows induced reporter light, run 1, well a = 1.73e5; induced reporter light, run 1, well b = 1.75e5; control promoter light, run 1, well a = 2.66e5; control promoter light, run 1, well b = 2.53e5; uninduced reporter light, run 1, well a = 16275; active.
AhcyL2 (Adenosylhomocysteinase like 2) gave induced reporter light, run 1, well a = 2.43e5; induced reporter light, run 1, well b = 2.46e5; control promoter light, run 1, well a = 2.32e5; control promoter light, run 1, well b = 2.25e5; uninduced reporter light, run 1, well a = 20700; inactive.
For osi (orsai), the values are induced reporter light, run 1, well a = 1.17e5; induced reporter light, run 1, well b = 1.57e5; control promoter light, run 1, well a = 1.90e5; control promoter light, run 1, well b = 2.26e5; uninduced reporter light, run 1, well a = 12820; active.
Against alpha-Est3 (alpha-Esterase-3) the deposit lists induced reporter light, run 1, well a = 1.16e5; induced reporter light, run 1, well b = 1.20e5; control promoter light, run 1, well a = 94330; control promoter light, run 1, well b = 87235; uninduced reporter light, run 1, well a = 10425; inactive.

Reformatted: entries from further up.
{"gene":"osi (orsai)","induced reporter light, run 1, well a":1.17e5,"induced reporter light, run 1, well b":1.57e5,"control promoter light, run 1, well a":1.90e5,"control promoter light, run 1, well b":2.26e5,"uninduced reporter light, run 1, well a":12820,"activity call":"active"}
{"gene":"alpha-Est3 (alpha-Esterase-3)","induced reporter light, run 1, well a":1.16e5,"induced reporter light, run 1, well b":1.20e5,"control promoter light, run 1, well a":94330,"control promoter light, run 1, well b":87235,"uninduced reporter light, run 1, well a":10425,"activity call":"inactive"}

Additional results:
For ATPsynC (ATP synthase, subunit C) the deposit lists induced reporter light, run 1, well a = 45985; induced reporter light, run 1, well b = 56970; control promoter light, run 1, well a = 1.14e5; control promoter light, run 1, well b = 1.15e5; uninduced reporter light, run 1, well a = 4310; active.
For Sgf29 (SAGA-associated factor 29kDa) the deposit lists induced reporter light, run 1, well a = 2.31e5; induced reporter light, run 1, well b = 1.61e5; control promoter light, run 1, well a = 1.77e5; control promoter light, run 1, well b = 1.83e5; uninduced reporter light, run 1, well a = 16940; inactive.
Knock-down of Mulk (Multi-substrate lipid kinase) resulted in: induced reporter light, run 1, well a = 2.33e5; induced reporter light, run 1, well b = 2.46e5; control promoter light, run 1, well a = 2.24e5; control promoter light, run 1, well b = 2.03e5; uninduced reporter light, run 1, well a = 17292; inactive.
For CG14626 the deposit lists induced reporter light, run 1, well a = 1.59e5; induced reporter light, run 1, well b = 1.26e5; control promoter light, run 1, well a = 2.19e5; control promoter light, run 1, well b = 2.25e5; uninduced reporter light, run 1, well a = 9845; inactive.
CG8565 scored induced reporter light, run 1, well a = 1.35e5; induced reporter light, run 1, well b = 1.48e5; control promoter light, run 1, well a = 1.44e5; control promoter light, run 1, well b = 1.41e5; uninduced reporter light, run 1, well a = 15105; inactive.
After knock-down of CG15536, the record shows induced reporter light, run 1, well a = 1.18e5; induced reporter light, run 1, well b = 1.04e5; control promoter light, run 1, well a = 1.62e5; control promoter light, run 1, well b = 1.77e5; uninduced reporter light, run 1, well a = 12688; inactive.
For AsnS (Asparagine synthetase) the deposit lists induced reporter light, run 1, well a = 2.30e5; induced reporter light, run 1, well b = 2.64e5; control promoter light, run 1, well a = 3.38e5; control promoter light, run 1, well b = 2.72e5; uninduced reporter light, run 1, well a = 20210; inactive.
With knock-down of CG9662, the record shows induced reporter light, run 1, well a = 1.59e5; induced reporter light, run 1, well b = 1.88e5; control promoter light, run 1, well a = 1.74e5; control promoter light, run 1, well b = 1.72e5; uninduced reporter light, run 1, well a = 11988; inactive.
